Hit rate of the full screen: of about 31,000 sequences, about 1,400 (4.5%) were called active.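 How the source made its calls: active means median seed-adjusted z-score above 1 or below -1; inactive means the rest.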 Some of the results follow.

A short description of the test: Novel Modifiers of Survival Motor Neuron (SMN) Protein: Gene Identification via Genome-wide siRNA Screen.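 Further: luminescence tracks full-length SMN protein made from the SMN2 reporter.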 Particulars: HEK293T SMN2-luciferase reporter, siRNA knockdown, 72 h; actives lie on both sides. In a few lines: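 Genome-wide siRNA screen (10418 genes, 3 siRNAs each, 1 pmol per well) by reverse transfection in HEK293T cells stably carrying an SMN2-luciferase reporter; luminescence after 72 hours, normalized to negative-control siRNA, log10-transformed, MAD-scored.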
A general note: Reporter assays use an easily measured gene product as a stand-in for the process of interest.
Consider GACUCACAUUUUAUGGGAATT against SPON1, for which the median seed-adjusted z-score is inactive: 0.248.
For GCUAUUUCCAGCGAAUAUATT against CNOT1, the median seed-adjusted z-score was active: 1.2.
For the sequence GAUCAACUGAAAUCGGCAATT against DTYMK, the median seed-adjusted z-score is inactive: -0.191.
As to GCGAAGACAUUUUGGAGAATT against GSTM2, the median seed-adjusted z-score is inactive: -0.464.
On to CCAGGAUUCUCGCAGGAAATT against LPCAT1, for which the median seed-adjusted z-score was inactive: -0.995.
As to GCCUCUUUCUGUCAGCAUUTT against SPAG4, the median seed-adjusted z-score is inactive: -0.219.
As for GCAGAAAUAAUAUCUCGGATT against ADARB1, the median seed-adjusted z-score is inactive: 0.375.
The figure for GAAUCAACAUAUAACGAAUTT against GPR64 is inactive: 0.527; for GCGUGAACCUCAUAGGGAATT against FBN1 it is inactive: 0; for GGAUGGUAUUUGUACUAAUTT against SGPP1 it is inactive: 0.0859.
In the case of GGAAGCUUAUGUUCAAUCATT against COG5, the median seed-adjusted z-score is inactive: -0.0609.
With AGGCCUUUCUGGGACCUUATT against ZP4, the median seed-adjusted z-score was inactive: 0.0498.
As for CCGCUAAUGUUCAAGGACATT against UNC5B, the median seed-adjusted z-score is inactive: -0.0207.
For the sequence GCUACCUUGUCAGACACGATT against ATP7A, the median seed-adjusted z-score was inactive: 0.
With GCGUUGUCUUGGUUAACAATT against SNAPIN, the median seed-adjusted z-score was inactive: -0.132.
For GAGAAGUAUUCUUAAAACATT against ZFYVE28, the median seed-adjusted z-score is inactive: 0.0678.
Regarding CAUCAAAGCUUAUCAUGGATT against SPRR2B, the median seed-adjusted z-score was inactive: 0.388.
As for GGAUUACAGAGGAACGGCATT against ROR2, the median seed-adjusted z-score was inactive: 0.
For GACUUUACGUUCUCAUUUUTT against VN1R5 the value was inactive: 0.177; for GAAUAUAACCUGCCGCUUUTT against CD44, inactive: 0.
As for GGACCUUGUCUGUACUCAUTT against DRD1, the median seed-adjusted z-score is inactive: -0.508.
As to GGAUCUGUCUGAUAUUGCUTT against GDAP2, the median seed-adjusted z-score was inactive: 0.199.
Take CGAGAGAAUAUGUCACAUUTT against ADAMTS13: the median seed-adjusted z-score is inactive: -0.276.
Consider CCAUCUAUGAUGAACCUGATT against DOK1, for which the median seed-adjusted z-score is inactive: 0.0532.
On to AACUCUACACGAUUCUUCATT against CSNK1A1L, for which the median seed-adjusted z-score is inactive: -0.5.
Consider CUACUGUCUUUGACAAUUATT against RAC1, for which the median seed-adjusted z-score is inactive: -0.0348.
GUACGACUCCAGAUUCCAATT against ZNF521: the median seed-adjusted z-score is inactive: -0.331.
For CCAGAACCCAAGCUGUUAATT against RNF130, the median seed-adjusted z-score was inactive: -0.21.
For GCAAAGUGCCGAAACAAGATT against ATF3, the median seed-adjusted z-score is inactive: -0.000485.
GGACAUACUACAUUUCCUATT against TRIM45: the median seed-adjusted z-score was inactive: -0.0974.
CCGCAGACCUACUAAAACATT against MAP3K8: the median seed-adjusted z-score was inactive: -0.533.
For the sequence GUGUUAAAGCUGAACAGGATT against LRIG3, the median seed-adjusted z-score is inactive: 0.882.
For GGAUAUUACCUCUCCAGAATT against TRIM21 the value was inactive: 0.524.
The figure for GGACAACAACGAAUGAAAUTT against SETD1A is inactive: 0.0595; for CAUAUUCUAUUGCUCAAAATT against BPNT1 it is inactive: 0.0844.
As to GGAAAUCUGUCACAUCGUATT against NR1I3, the median seed-adjusted z-score is inactive: 0.000933.
The figure for GGGCAACUCUUCAUCUACATT against SLC5A10 is inactive: 0.669.
The figure for ACCUCAACAUGCACCCAGATT against SMPD2 is inactive: -0.406; for GAUUGUUCGCUAUCCACGATT against CYP7A1 it is inactive: -0.0092; for CCACUAACCAAUGACGGAATT against APPL2 it is inactive: -0.245.
Regarding GCAGCCUAAUCGACAUAGATT against RASGRP2, the median seed-adjusted z-score is inactive: -0.00329.
As to CCUGAUAGCUGGACGGAUATT against SLC5A4, the median seed-adjusted z-score is inactive: 0.602.
With GCUAGAUGCUGGGAUGAGATT against SMC1B, the median seed-adjusted z-score was inactive: 0.
Take AGCUUGACAUUCUCAAAGATT against TIMM44: the median seed-adjusted z-score was inactive: -0.569.
For ACAUCUUCAAGGCCCUUUUTT against CTDSP2 the value was inactive: 0.498; for CGACAGCGACUGCAUGAGATT against SURF6, inactive: 0.122.
For GAACCGAGGUCGACAUGAATT against IMP4, the median seed-adjusted z-score was inactive: -0.359.
Regarding ACAGAACCGUGGUUAACAUTT against SPR, the median seed-adjusted z-score was inactive: 0.0329.
For UGAGGUCACAUUUCACUUATT against MAFF, the median seed-adjusted z-score was inactive: 0.42.
Consider GCUAUGAGAUGGUCAAAAUTT against LDHAL6A, for which the median seed-adjusted z-score was inactive: -0.15.
Consider GCAUGUGACUUACCUGGGATT against FUT5, for which the median seed-adjusted z-score is inactive: 0.
In the case of CCUUCCUAAUUUAACCAGATT against IPPK, the median seed-adjusted z-score was inactive: 0.389.
On to GAACUAUGCUAUACCAGAATT against IQCH, for which the median seed-adjusted z-score is inactive: 0.
Consider UGCUCAGCAGUACAACGUATT against SYN1, for which the median seed-adjusted z-score was inactive: -0.458.
Consider GGUGGACAUGAGCAAAGUATT against SRRM1, for which the median seed-adjusted z-score is inactive: -0.861.
Turning to GCAGCUGAGUAUCGAGAAATT against PIK3R1, the median seed-adjusted z-score is inactive: 0.196.
As for CCGCUGUGCUCAAAUCUGATT against RBM10, the median seed-adjusted z-score is inactive: -0.0114.
For GGAAACGACCUGUCAAAGATT against PHAX, the median seed-adjusted z-score was inactive: -0.0716.
As for CAAGCAAAUUCAUAGUGUATT against ZNF493, the median seed-adjusted z-score is inactive: 0.0872.
For the sequence GCACGACGACAAUAUCAUUTT against PEX3, the median seed-adjusted z-score was inactive: 0.142.
In the case of CAAGUGUUCUCACCAGAGATT against ZBTB25, the median seed-adjusted z-score was inactive: 0.
Turning to GUGUUUAGGUAAUCUAAUUTT against CDKL2, the median seed-adjusted z-score was inactive: -0.293.
On to AGACAGCUGCGAAUCUGGATT against MEFV, for which the median seed-adjusted z-score is inactive: 0.
The figure for UGAUCAUCAUGCUUCCGGATT against SERPINB6 is inactive: 0.0155; for CUGUGAAGAUAGAAGGAUATT against CAPZA1 it is inactive: -0.0237; for GAAUCUGGUGGGCCCUUUATT against POFUT2 it is inactive: -0.86.
Regarding CGAGGAUAUUGACUGGGUATT against PRKCZ, the median seed-adjusted z-score is inactive: -0.175.
For GAAUAGAGUCUGUUAAUGUTT against E2F8 the value was inactive: 0.209; for GGCUGAAUUUUGCAAGGCATT against GOT2, inactive: 0.205.
Turning to CAAGCAAAUUGAGAAUAUATT against GBX2, the median seed-adjusted z-score is inactive: -0.442.
Regarding GAUGAGUGUUACCAAGUAATT against PDS5A, the median seed-adjusted z-score is inactive: -0.29.
For CGGGCUUAAUUAUUAGUAATT against ZNF248 the value was inactive: -0.0486.
GCCGAGCAAUAGUAACGAUTT against ZMIZ1: the median seed-adjusted z-score is inactive: -0.382.
Turning to CACUUCCAGUCUUACAUCATT against BMPR1B, the median seed-adjusted z-score was inactive: 0.5.
Consider GUGCGAAAGAGAAUCUUAATT against SPIRE1, for which the median seed-adjusted z-score was inactive: 0.336.
On to CUAUUGUCCCUUCUAAUCATT against UHRF2, for which the median seed-adjusted z-score was inactive: -0.0941.
For the sequence AAACAAUCCGAAAAUAUGATT against KLK13, the median seed-adjusted z-score is inactive: 0.452.
The figure for AGGUCAUGCCGUACGCACATT against OLIG2 is inactive: 0.00944; for GCAUAACGAUUGUGGAAGATT against STXBP1 it is inactive: -0.0496.
For CGAGUUGCUUAUGAAAUUATT against FUT8, the median seed-adjusted z-score is inactive: 0.464.
For the sequence GUCCCUAUCUAUUCAGUUATT against PHOSPHO1, the median seed-adjusted z-score was inactive: -0.296.
For GGACCCAUGUCUUCGGAAATT against HBEGF the value was inactive: -0.903; for AUCAAGGAGUCGACAUUAATT against HOXB2, inactive: 0.271; for CCUUUAAGCUGACCACAGATT against PI4KB, inactive: 0.105.
Consider GCUCAUAUCUUACCAAACATT against ZNF560, for which the median seed-adjusted z-score is inactive: 0.0927.
As for GGAGUCCUAUGUGGGCAAATT against FKSG30, the median seed-adjusted z-score is inactive: -0.292.
As to GGAUUAUGAAAUCACCAAATT against PCDH18, the median seed-adjusted z-score was inactive: -0.132.
For GACUUUUCUUAGGAUCAGATT against DYNLRB2, the median seed-adjusted z-score is inactive: 0.534.
In the case of GGAACACUAAGGUCAAAUATT against B3GNT4, the median seed-adjusted z-score was inactive: 0.124.
For ACAGCACGGCUGACAGAGATT against ICAM2, the median seed-adjusted z-score was inactive: 0.269.
Consider GACUAAUGGAGACCCAAGATT against DARS2, for which the median seed-adjusted z-score was inactive: 0.0673.
For CGCCUAAGCUCGCACUUCATT against ZNF771, the median seed-adjusted z-score was inactive: 0.108.
Turning to GCAGAUAUCUGAUAGCCCUTT against PPA2, the median seed-adjusted z-score was inactive: -0.497.
Consider GGACUGCUAUGACCGGCUATT against RGS11, for which the median seed-adjusted z-score was inactive: 0.
As to GUGAUGGAAUUGUAAAUGATT against RRM2B, the median seed-adjusted z-score is inactive: -0.128.
The figure for CCUCAGUGAUUCUCGGUAATT against EXOSC2 is inactive: -0.0798; for CUCCCAGAUCUGUGCAAAATT against ATP5E it is inactive: -0.724; for GGACAUCGCGAGUACCUAUTT against NEDD4L it is inactive: 0.212.
With GAAUCUACAGGAAACGAGATT against SETD8, the median seed-adjusted z-score is active: -1.52.
The figure for GUACUGCCGUGUCUAUAUATT against ADRA1B is inactive: -0.472.
The figure for GGAGUGAAGUUCGAUGAAATT against HSP90B1 is inactive: 0; for ACAUGUGCUUGGUACAAAATT against PTGIR it is inactive: -0.0806; for GAUGUGGACUGGAUAGUCATT against NTRK3 it is inactive: 0.
CCAGUUAUCAAGUUCGAUATT against ALDH5A1: the median seed-adjusted z-score was inactive: 0.339.
GGCUAUAAGGUGAUGUAUATT against SDK2: the median seed-adjusted z-score is inactive: 0.908.
For GUCUCGUGCUGUUCGUCAATT against MYH10 the value was inactive: 0.0877.
Take GCCGGUUAGUAUACAAAGATT against SLC37A2: the median seed-adjusted z-score is inactive: 0.134.

For the origin of these results see PubChem BioAssay AID1347426 (Functional Genomics Laboratory (NCATS/FGL), 2020).
